Data reported in article PMC9178013.
Read-outs that look alike come from different tables or passages of the source. These are yes or no findings as the source states them, for the method shown. In cells and extracts the contact can be indirect. These calls come from enrichment with a bait or labelling near it, and not all partners need be listed. For some of these results: Sequences can lack the tags named with a protein. Values belong to the molecule of their own block, whether it stands above or below them.

Protein sequences, listed by entry. Tags and fused reporters are not part of them.
UniProt P09012: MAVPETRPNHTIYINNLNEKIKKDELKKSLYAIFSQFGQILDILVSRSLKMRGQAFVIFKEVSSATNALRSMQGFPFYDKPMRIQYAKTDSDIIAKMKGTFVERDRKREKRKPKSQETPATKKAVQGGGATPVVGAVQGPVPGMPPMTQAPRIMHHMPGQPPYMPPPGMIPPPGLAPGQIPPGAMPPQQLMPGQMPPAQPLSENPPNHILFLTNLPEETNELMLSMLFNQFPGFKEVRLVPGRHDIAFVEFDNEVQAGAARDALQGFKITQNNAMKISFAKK

Assays:
[1] = target: T1, FLAG-TurboID-tagged full-length RNPS1 (UniProt Q15287); assay: proximity labelling; FLAG-TurboID-tagged RNPS1 construct in HEK293 cells; 50 uM biotin for 10 minutes; lysis in phospho-RIPA buffer with RNase A; streptavidin magnetic beads; label-free MS, against FLAG-TurboID-NLS control
T1 sequence: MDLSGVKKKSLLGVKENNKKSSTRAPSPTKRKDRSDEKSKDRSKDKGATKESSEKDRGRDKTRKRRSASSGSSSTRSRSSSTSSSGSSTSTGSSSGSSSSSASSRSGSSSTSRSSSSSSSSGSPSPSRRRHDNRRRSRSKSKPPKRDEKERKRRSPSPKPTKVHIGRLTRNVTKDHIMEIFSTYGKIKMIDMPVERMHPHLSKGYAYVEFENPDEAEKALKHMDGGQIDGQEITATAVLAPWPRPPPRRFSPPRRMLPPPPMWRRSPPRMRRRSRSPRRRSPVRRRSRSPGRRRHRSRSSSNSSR

[2] = target: T2, FLAG-emGFP-tagged full-length RNPS1 (UniProt Q15287); assay: affinity purification with mass spectrometry; FLAG-emGFP-tagged RNPS1 construct as bait; lysate in buffer E (20 mM HEPES-KOH pH 7.9, 100 mM KCl, 10% glycerol, 1 mM DTT) with 1 ug/ml RNase A; Anti-FLAG M2 magnetic beads, 2 h at 4 C; mild wash buffer; FLAG peptide elution; label-free MS, against FLAG-emGFP control
T2 sequence: T1 sequence

[3] = target: T3, MYC-UltraID-tagged full-length RNPS1 (UniProt Q15287); assay: proximity labelling; MYC-UltraID-tagged full-length RNPS1 in cells; 50 uM biotin for 10 minutes; lysis in phospho-RIPA buffer with RNase A; streptavidin magnetic beads; label-free MS, against MYC-UltraID-NLS control
T3 sequence: T1 sequence

[4] = target: T1, FLAG-TurboID-tagged full-length RNPS1; assay: proximity labelling; FLAG-TurboID-tagged RNPS1 construct in HEK293 cells; 50 uM biotin for 10 minutes; lysis in phospho-RIPA buffer with RNase A; streptavidin magnetic beads; label-free MS, against FLAG-TurboID-NLS control; remark: listed apart in the source
[5] = target: FLAG-emGFP-tagged C-terminally shortened RNPS1 (Del-C); assay: affinity purification with mass spectrometry; FLAG-emGFP-tagged RNPS1 construct as bait; lysate in buffer E (20 mM HEPES-KOH pH 7.9, 100 mM KCl, 10% glycerol, 1 mM DTT) with 1 ug/ml RNase A; Anti-FLAG M2 magnetic beads, 2 h at 4 C; mild wash buffer; FLAG peptide elution; label-free MS, against FLAG-emGFP control
[6] = target: FLAG-TurboID-tagged C-terminally shortened RNPS1 (Del-C); assay: proximity labelling; FLAG-TurboID-tagged RNPS1 construct in HEK293 cells; 50 uM biotin for 10 minutes; lysis in phospho-RIPA buffer with RNase A; streptavidin magnetic beads; label-free MS, against FLAG-TurboID-NLS control
[7] = target: T4, FLAG-TurboID-tagged RNPS1 RRM (UniProt Q15287); assay: as above
T4 sequence: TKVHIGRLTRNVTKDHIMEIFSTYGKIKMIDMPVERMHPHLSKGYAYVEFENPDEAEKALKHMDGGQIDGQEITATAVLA

[8] = target: T5, FLAG-emGFP-tagged RNPS1 RRM (UniProt Q15287); assay: affinity purification with mass spectrometry; FLAG-emGFP-tagged RNPS1 construct as bait; lysate in buffer E (20 mM HEPES-KOH pH 7.9, 100 mM KCl, 10% glycerol, 1 mM DTT) with 1 ug/ml RNase A; Anti-FLAG M2 magnetic beads, 2 h at 4 C; mild wash buffer; FLAG peptide elution; label-free MS, against FLAG-emGFP control
T5 sequence: T4 sequence

binding [1]: binds | binding [2]: binds | binding [3]: binds
Molecule: SNRPA (from UniProt P09012 1-282)

binding [4]: binds | binding [2]: binds | binding [5]: binds | binding [3]: binds
B2: LUC7L3 (protein, UniProt O95232 1-432)
chain: MISAAQLLDELMGRDRNLAPDEKRSNVRWDHESVCKYYLCGFCPAELFTNTRSDLGPCEKIHDENLRKQYEKSSRFMKVGYERDFLRYLQSLLAEVERRIRRGHARLALSQNQQSSGAAGPTGKNEEKIQVLTDKIDVLLQQIEELGSEGKVEEAQGMMKLVEQLKEERELLRSTTSTIESFAAQEKQMEVCEVCGAFLIVGDAQSRVDDHLMGKQHMGYAKIKATVEELKEKLRKRTEEPDRDERLKKEKQEREEREKEREREREERERKRRREEEEREKERARDRERRKRSRSRSRHSSRTSDRRCSRSRDHKRSRSRERRRSRSRDRRRSRSHDRSERKHRSRSRDRRRSKSRDRKSYKHRSKSRDREQDRKSKEKEKRGSDDKKSSVKSGSREKQSEDTNTESKESDTKNEVNGTSEDIKSEGDTQSN

binding [4]: binds | binding [6]: binds | binding [7]: binds | binding [2]: binds | binding [5]: binds | binding [8]: binds | binding [3]: binds
B3: Sin3A associated protein 18 (SAP18) (protein, UniProt O00422 1-153)
chain: MAVESRVTQEEIKKEPEKPIDREKTCPLLLRVFTTNNGRHHRMDEFSRGNVPSSELQIYTWMDATLKELTSLVKEVYPEARKKGTHFNFAIVFTDVKRPGYRVKEIGSTMSGRKGTDDSMTLQSQKFQIGDYLDIAITPPNRAPPPSGRMRPY

binding [8]: binds
B6: SLU7 (protein, UniProt O95391 1-586)
chain: MSATVVDAVNAAPLSGSKEMSLEEPKKMTREDWRKKKELEEQRKLGNAPAEVDEEGKDINPHIPQYISSVPWYIDPSKRPTLKHQRPQPEKQKQFSSSGEWYKRGVKENSIITKYRKGACENCGAMTHKKKDCFERPRRVGAKFTGTNIAPDEHVQPQLMFDYDGKRDRWNGYNPEEHMKIVEEYAKVDLAKRTLKAQKLQEELASGKLVEQANSPKHQWGEEEPNSQMEKDHNSEDEDEDKYADDIDMPGQNFDSKRRITVRNLRIREDIAKYLRNLDPNSAYYDPKTRAMRENPYANAGKNPDEVSYAGDNFVRYTGDTISMAQTQLFAWEAYDKGSEVHLQADPTKLELLYKSFKVKKEDFKEQQKESILEKYGGQEHLDAPPAELLLAQTEDYVEYSRHGTVIKGQERAVACSKYEEDVKIHNHTHIWGSYWKEGRWGYKCCHSFFKYSYCTGEAGKEIVNSEECIINEITGEESVKKPQTLMELHQEKLKEEKKKKKKKKKKHRKSSSDSDDEEKKHEKLKKALNAEEARLLHVKETMQIDERKRPYNSMYETREPTEEEMEAYRMKRQRPDDPMASFLGQ

More lines, now with the values behind:

B1: LUC7L2 (protein, UniProt Q9Y383 1-392)
chain: MSAQAQMRAMLDQLMGTSRDGDTTRQRIKFSDDRVCKSHLLNCCPHDVLSGTRMDLGECLKVHDLALRADYEIASKEQDFFFELDAMDHLQSFIADCDRRTEVAKKRLAETQEEISAEVAAKAERVHELNEEIGKLLAKVEQLGAEGNVEESQKVMDEVEKARAKKREAEEVYRNSMPASSFQQQKLRVCEVCSAYLGLHDNDRRLADHFGGKLHLGFIEIREKLEELKRVVAEKQEKRNQERLKRREEREREEREKLRRSRSHSKNPKRSRSREHRRHRSRSMSRERKRRTRSKSREKRHRHRSRSSSRSRSRSHQRSRHSSRDRSRERSKRRSSKERFRDQDLASCDRDRSSRDRSPRDRDRKDKKRSYESANGRSEDRRSSEEREAGEI
binding [4]: binds | binding [2]: binds | binding [5]: binds | binding [3]: binds

B4: U2AF1 (protein, UniProt Q01081 1-240)
chain: MAEYLASIFGTEKDKVNCSFYFKIGACRHGDRCSRLHNKPTFSQTIALLNIYRNPQNSSQSADGLRCAVSDVEMQEHYDEFFEEVFTEMEEKYGEVEEMNVCDNLGDHLVGNVYVKFRREEDAEKAVIDLNNRWFNGQPIHAELSPVTDFREACCRQYEMGECTRGGFCNFMHLKPISRELRRELYGRRRKKHRSRSRSRERRSRSRDRGRGGGGGGGGGGGGRERDRRRSRDRERSGRF
binding [2]: binds | binding [8]: binds

B5: Acinus (ACIN1) (protein, UniProt Q9UKV3 1-1341)
chain: MWRRKHPRTSGGTRGVLSGNRGVEYGSGRGHLGTFEGRWRKLPKMPEAVGTDPSTSRKMAELEEVTLDGKPLQALRVTDLKAALEQRGLAKSGQKSALVKRLKGALMLENLQKHSTPHAAFQPNSQIGEEMSQNSFIKQYLEKQQELLRQRLEREAREAAELEEASAESEDEMIHPEGVASLLPPDFQSSLERPELELSRHSPRKSSSISEEKGDSDDEKPRKGERRSSRVRQARAAKLSEGSQPAEEEEDQETPSRNLRVRADRNLKTEEEEEEEEEEEEDDEEEEGDDEGQKSREAPILKEFKEEGEEIPRVKPEEMMDERPKTRSQEQEVLERGGRFTRSQEEARKSHLARQQQEKEMKTTSPLEEEEREIKSSQGLKEKSKSPSPPRLTEDRKKASLVALPEQTASEEETPPPLLTKEASSPPPHPQLHSEEEIEPMEGPAPAVLIQLSPPNTDADTRELLVSQHTVQLVGGLSPLSSPSDTKAESPAEKVPEESVLPLVQKSTLADYSAQKDLEPESDRSAQPLPLKIEELALAKGITEECLKQPSLEQKEGRRASHTLLPSHRLKQSADSSSSRSSSSSSSSSRSRSRSPDSSGSRSHSPLRSKQRDVAQARTHANPRGRPKMGSRSTSESRSRSRSRSRSASSNSRKSLSPGVSRDSSTSYTETKDPSSGQEVATPPVPQLQVCEPKERTSTSSSSVQARRLSQPESAEKHVTQRLQPERGSPKKCEAEEAEPPAATQPQTSETQTSHLPESERIHHTVEEKEEVTMDTSENRPENDVPEPPMPIADQVSNDDRPEGSVEDEEKKESSLPKSFKRKISVVSATKGVPAGNSDTEGGQPGRKRRWGASTATTQKKPSISITTESLKSLIPDIKPLAGQEAVVDLHADDSRISEDETERNGDDGTHDKGLKICRTVTQVVPAEGQENGQREEEEEEKEPEAEPPVPPQVSVEVALPPPAEHEVKKVTLGDTLTRRSISQQKSGVSITIDDPVRTAQVPSPPRGKISNIVHISNLVRPFTLGQLKELLGRTGTLVEEAFWIDKIKSHCFVTYSTVEEAVATRTALHGVKWPQSNPKFLCADYAEQDELDYHRGLLVDRPSETKTEEQGIPRPLHPPPPPPVQPPQHPRAEQREQERAVREQWAEREREMERRERTRSEREWDRDKVREGPRSRSRSRDRRRKERAKSKEKKSEKKEKAQEEPPAKLLDDLFRKTKAAPCIYWLPLTDSQIVQKEAERAERAKEREKRRKEQEEEEQKEREKEAERERNRQLEREKRREHSRERDRERERERERDRGDRDRDRERDRERGRERDRRDTKRHSRSRSRSTPVRDRGGRR
binding [4]: binds | binding [6]: binds | binding [7]: binds | binding [2]: binds | binding [5]: binds | binding [8]: binds | binding [3]: binds
